Source: PMC4703059
No constants are given. Whether binding was seen depends on the method and setting. Some results given as binding are weak or reduced against the parent protein; the word gives no strength. For some of these results: Tags and fused reporters may be left off the sequences shown.

B1: Lst7 (GAL activation domain fusion, pACT2) (protein, UniProt P53237 1-242)
chain: MSSTVISLAHFCDKHGPRIISVTQSAEKGTLGEELLVPDYPTESYCESCLLQFPEESTRSMRCFIEDVPFITTQYSSIRYQLLNSIIKRAFSEETMIYDNMPFIFFDDLRGLNLVIGFKLYDENARGNERRYCFILTVDSRSHDDSMKMLSEHWNFIIGGFDKMIAYIKNIHKSEFLGKNKTVENNLETLNNNAFIGSYLRANKSKFGRNLVSLTDDKFLFVRIHKWNSFLLHTVMNENKLP
B2: Lst4 longin domain from K. lactis (aa58-226) (domain or fragment, UniProt Q6CXP4 58-226)
chain: NDRLHNGGFRLIISQELGHVTSRNNYQVVLDHSSVNFHTGAHIPLNELKDYIFGSSIRTIDYSASSDKIKVVKSANIVLFTRIFYLNEKSTLRIAISCCVTDDVLPVLTECWPHISSFLDQCENTLLKYLAKNDTQFLPHDWKARNCIEVAAVLQTFQRKIIPLLSGYS

Tests used:
[1] = molecular target: T1, Lst4 (LexA DNA binding domain fusion, pLexPD) (S. cerevisiae) (UniProt P34239); assay: two-hybrid; Lst7 as prey in pACT2 (GAL activation domain); Lst4, its truncations and COPII coat genes as bait in pLexPD (LexA DNA binding domain); L40 reporter strain; serial dilutions spotted on plates with and without histidine; LacZ beta-galactosidase assay as second reporter
T1 sequence: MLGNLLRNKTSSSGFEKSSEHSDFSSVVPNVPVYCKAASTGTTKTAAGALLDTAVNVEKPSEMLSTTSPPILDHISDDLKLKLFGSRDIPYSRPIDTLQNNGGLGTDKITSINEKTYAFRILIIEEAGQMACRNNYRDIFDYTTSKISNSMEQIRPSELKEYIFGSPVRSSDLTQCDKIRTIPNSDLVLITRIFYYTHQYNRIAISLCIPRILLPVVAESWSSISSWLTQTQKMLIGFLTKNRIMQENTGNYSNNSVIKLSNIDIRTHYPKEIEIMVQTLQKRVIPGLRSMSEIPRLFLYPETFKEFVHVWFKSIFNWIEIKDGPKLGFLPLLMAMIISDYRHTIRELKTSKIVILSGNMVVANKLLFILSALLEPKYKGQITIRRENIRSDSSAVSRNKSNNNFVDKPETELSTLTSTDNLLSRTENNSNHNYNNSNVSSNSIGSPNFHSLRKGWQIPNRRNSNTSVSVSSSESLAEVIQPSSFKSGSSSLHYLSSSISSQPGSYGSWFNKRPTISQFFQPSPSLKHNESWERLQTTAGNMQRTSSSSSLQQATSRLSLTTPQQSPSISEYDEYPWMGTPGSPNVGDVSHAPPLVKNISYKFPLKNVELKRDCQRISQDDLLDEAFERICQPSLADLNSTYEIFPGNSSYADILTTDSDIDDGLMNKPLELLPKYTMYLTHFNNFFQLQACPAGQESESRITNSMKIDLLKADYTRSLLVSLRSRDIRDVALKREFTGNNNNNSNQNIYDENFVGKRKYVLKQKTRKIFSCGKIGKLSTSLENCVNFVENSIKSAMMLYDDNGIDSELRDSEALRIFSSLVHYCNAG

[2] = molecular target: T2, Sec24 (LexA DNA binding domain fusion, pLexPD) (UniProt P40482); assay: as above
T2 sequence: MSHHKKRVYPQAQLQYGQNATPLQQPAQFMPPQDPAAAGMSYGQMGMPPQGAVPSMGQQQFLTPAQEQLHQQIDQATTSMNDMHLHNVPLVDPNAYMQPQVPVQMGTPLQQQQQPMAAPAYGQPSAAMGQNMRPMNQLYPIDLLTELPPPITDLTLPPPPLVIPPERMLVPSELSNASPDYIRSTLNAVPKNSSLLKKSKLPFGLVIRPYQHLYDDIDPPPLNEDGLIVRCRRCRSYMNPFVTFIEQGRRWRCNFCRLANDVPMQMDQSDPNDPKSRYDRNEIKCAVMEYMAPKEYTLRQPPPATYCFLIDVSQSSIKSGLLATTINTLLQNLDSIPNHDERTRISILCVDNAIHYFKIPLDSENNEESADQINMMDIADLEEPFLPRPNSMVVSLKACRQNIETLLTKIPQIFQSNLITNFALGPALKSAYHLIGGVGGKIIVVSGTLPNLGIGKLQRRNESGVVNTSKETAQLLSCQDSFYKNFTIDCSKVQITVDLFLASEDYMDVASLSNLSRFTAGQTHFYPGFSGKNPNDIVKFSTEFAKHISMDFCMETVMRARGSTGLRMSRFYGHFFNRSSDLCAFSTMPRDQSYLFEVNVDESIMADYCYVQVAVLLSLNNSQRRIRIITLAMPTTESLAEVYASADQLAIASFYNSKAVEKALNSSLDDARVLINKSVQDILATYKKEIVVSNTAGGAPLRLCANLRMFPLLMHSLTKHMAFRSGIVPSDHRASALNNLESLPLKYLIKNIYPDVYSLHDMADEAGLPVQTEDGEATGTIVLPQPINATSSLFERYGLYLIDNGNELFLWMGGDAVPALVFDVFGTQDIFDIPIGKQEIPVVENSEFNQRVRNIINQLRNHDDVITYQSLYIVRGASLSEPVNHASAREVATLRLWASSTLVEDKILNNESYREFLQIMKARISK

[3] = molecular target: T3, Sec23 (LexA DNA binding domain fusion, pLexPD) (UniProt P15303); assay: as above
T3 sequence: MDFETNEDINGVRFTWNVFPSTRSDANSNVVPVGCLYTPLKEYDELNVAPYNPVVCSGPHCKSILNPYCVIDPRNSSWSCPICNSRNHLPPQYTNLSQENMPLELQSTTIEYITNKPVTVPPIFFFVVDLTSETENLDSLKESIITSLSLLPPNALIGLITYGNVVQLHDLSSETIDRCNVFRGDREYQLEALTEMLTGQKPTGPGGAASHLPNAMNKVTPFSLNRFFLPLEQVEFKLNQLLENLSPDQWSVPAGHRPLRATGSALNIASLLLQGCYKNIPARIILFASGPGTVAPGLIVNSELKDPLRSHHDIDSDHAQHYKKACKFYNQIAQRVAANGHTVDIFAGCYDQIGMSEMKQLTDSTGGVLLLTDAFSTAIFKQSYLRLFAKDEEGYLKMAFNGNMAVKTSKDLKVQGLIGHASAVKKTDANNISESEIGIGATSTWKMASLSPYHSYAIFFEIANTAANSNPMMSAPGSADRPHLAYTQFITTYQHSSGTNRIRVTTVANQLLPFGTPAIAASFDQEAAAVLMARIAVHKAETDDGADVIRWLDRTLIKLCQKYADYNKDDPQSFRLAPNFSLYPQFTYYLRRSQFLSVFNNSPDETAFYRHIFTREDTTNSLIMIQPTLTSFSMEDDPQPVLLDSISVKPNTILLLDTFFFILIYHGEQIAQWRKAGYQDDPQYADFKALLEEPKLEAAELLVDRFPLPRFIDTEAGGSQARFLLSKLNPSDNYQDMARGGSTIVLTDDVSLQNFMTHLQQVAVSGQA

[4] = molecular target: Lst4 longin domain from K. lactis (aa58-226) (Kluyveromyces lactis) (UniProt Q6CXP4); assay: AUC; Beckman-Coulter XL-1, 40 000 rcf, 20°C, 300 absorbance scans, fitted with SEDFIT; both purified

Row | Binder | binding [1] | binding [2] | binding [3] | binding [4]
1 | B1 | binds | binds weakly | binds weakly | –
2 | B2 | – | – | – | no binding
